Measured values from article PMC11951516.

By UniProt entry, the sequences of proteins in these tests, tags left out.
UniProt O43524: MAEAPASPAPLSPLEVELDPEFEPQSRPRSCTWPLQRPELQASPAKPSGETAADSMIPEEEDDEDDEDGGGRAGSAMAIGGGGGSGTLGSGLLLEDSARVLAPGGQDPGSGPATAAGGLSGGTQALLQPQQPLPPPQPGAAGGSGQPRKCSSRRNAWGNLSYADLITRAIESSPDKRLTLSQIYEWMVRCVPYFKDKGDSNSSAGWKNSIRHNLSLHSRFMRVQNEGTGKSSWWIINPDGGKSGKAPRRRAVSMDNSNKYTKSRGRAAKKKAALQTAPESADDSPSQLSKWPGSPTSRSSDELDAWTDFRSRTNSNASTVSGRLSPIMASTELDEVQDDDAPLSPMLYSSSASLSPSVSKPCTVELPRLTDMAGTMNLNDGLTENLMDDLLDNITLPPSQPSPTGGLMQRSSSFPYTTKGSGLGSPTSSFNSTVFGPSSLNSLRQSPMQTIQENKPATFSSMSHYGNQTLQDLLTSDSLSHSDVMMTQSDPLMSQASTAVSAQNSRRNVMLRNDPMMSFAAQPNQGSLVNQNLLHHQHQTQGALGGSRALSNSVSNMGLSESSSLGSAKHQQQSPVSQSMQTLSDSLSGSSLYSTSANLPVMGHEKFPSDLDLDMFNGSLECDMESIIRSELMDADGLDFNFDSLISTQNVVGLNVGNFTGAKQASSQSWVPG
UniProt Q13547: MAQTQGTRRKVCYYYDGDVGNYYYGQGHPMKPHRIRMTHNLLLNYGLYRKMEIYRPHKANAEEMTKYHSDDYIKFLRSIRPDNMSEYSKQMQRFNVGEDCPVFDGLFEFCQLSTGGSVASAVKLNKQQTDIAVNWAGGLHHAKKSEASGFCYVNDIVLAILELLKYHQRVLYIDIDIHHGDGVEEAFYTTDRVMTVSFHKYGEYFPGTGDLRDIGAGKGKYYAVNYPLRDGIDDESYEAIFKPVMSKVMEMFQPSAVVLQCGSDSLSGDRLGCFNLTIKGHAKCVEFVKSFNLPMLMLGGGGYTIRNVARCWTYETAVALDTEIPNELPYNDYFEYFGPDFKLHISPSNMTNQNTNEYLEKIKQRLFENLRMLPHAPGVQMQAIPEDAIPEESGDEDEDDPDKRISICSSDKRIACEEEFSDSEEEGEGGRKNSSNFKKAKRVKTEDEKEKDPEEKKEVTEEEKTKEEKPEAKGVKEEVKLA

Target: activated form of FOXO3 (p-FOXO3 Ser413) (human (endogenous in HUDEP-2)) (UniProt O43524)
Assay: affinity purification with mass spectrometry; immunoprecipitation with anti-FOXO3 ser413 antibody or IgG from wild type and insA clone HUDEP-2 cells (3 x 10^7), RIPA lysis buffer, 4 °C, protein A/G plus agarose, washed 4 times with PBS; Q Exactive HF, MaxQuant

binding: binds
Substance: HDAC1 (from UniProt Q13547 1-482)

These are yes or no findings as the source states them, for the method shown. Binding seen in cells or lysates may run through a third protein. A yes stands for co-enrichment or nearness to the bait. Other partners may have been found.
